Reference: PubChem BioAssay AID1671195 (Yale University, 2021)
This is an unselected part of about 22,000 deposited reagents. In the full data, about 1,510 (6.9%) got an active call. 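Active includes knockdowns raising or lowering LDL uptake; positive z-scores mean more uptake, negative mean less.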

Purpose: 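Genes whose knockdown alters LDL uptake in liver cancer cells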 (primary screen)
Cells: human Huh7 hepatoma cells
Reagent: siRNA pool against human genes, 18 nM
Time to read-out: about 2 to 2.5 days of knockdown, then 8 h LDL uptake
Conditions: DiI-labelled LDL at 30 µg/ml for 8 h, in lipoprotein-deficient serum medium
Detection: 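Fluorescent LDL signal imaged in cells, scaled to the plate median, robust z-score for each replicate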
Reading the numbers: robust z-score: higher = more LDL uptake after knockdown
Call rule: 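Active when two or more replicates show a robust z-score above 2 or below -2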

PHF7 (PHD finger protein 7) showed robust z-score, replicate 1 = 2.58; robust z-score, replicate 2 = 2.66; robust z-score, replicate 3 = 2.08; active. For LOC389039 (retired record), the values are robust z-score, replicate 1 = 0.352; robust z-score, replicate 2 = 0.943; robust z-score, replicate 3 = 0.291; inactive. Against NRAS (NRAS proto-oncogene, GTPase), the entry reads robust z-score, replicate 1 = 1.88; robust z-score, replicate 2 = 2.73; robust z-score, replicate 3 = 2.27; active. Knock-down of CDK5R1 (cyclin dependent kinase 5 regulatory subunit 1) came out at: robust z-score, replicate 1 = -2.05; robust z-score, replicate 2 = -1.46; robust z-score, replicate 3 = -0.591; inactive. GFRA4 (GDNF family receptor alpha 4) gave robust z-score, replicate 1 = -1.12; robust z-score, replicate 2 = -0.485; robust z-score, replicate 3 = 0.744; inactive. With knock-down of P2RX1 (purinergic receptor P2X 1), the record shows robust z-score, replicate 1 = 0.614; robust z-score, replicate 2 = 0.116; robust z-score, replicate 3 = -0.186; inactive.

Silencing of GTF3A (general transcription factor IIIA) came out at: robust z-score, replicate 1 = 0.606; robust z-score, replicate 2 = 0.427; robust z-score, replicate 3 = 0.602; inactive. Knock-down of STAU1 (staufen double-stranded RNA binding protein 1) resulted in: robust z-score, replicate 1 = 1.78; robust z-score, replicate 2 = 2.23; robust z-score, replicate 3 = 2.19; active. After knock-down of PRKAG2 (protein kinase AMP-activated non-catalytic subunit gamma 2), the record shows robust z-score, replicate 1 = -0.33; robust z-score, replicate 2 = -0.107; robust z-score, replicate 3 = -0.555; inactive. Knock-down of LOC440152 (retired record) came out at: robust z-score, replicate 1 = -0.529; robust z-score, replicate 2 = -0.602; robust z-score, replicate 3 = -0.318; inactive. After knock-down of NFYBP1 (NFYB pseudogene 1) the results were robust z-score, replicate 1 = 0.00842; robust z-score, replicate 2 = 0.0651; robust z-score, replicate 3 = -0.00297; inactive. Against OTUD7B (OTU deubiquitinase 7B), the entry reads robust z-score, replicate 1 = -2; robust z-score, replicate 2 = -0.86; robust z-score, replicate 3 = -1.22; inactive.

For FGF23 (fibroblast growth factor 23), the entry reads robust z-score, replicate 1 = 1.09; robust z-score, replicate 2 = 0.798; robust z-score, replicate 3 = 1.38; inactive. Against LOC440869 (retired record), the entry reads robust z-score, replicate 1 = -0.891; robust z-score, replicate 2 = 1.75; robust z-score, replicate 3 = 0.924; inactive. After knock-down of ISCU (iron-sulfur cluster assembly enzyme) the results were robust z-score, replicate 1 = 0.598; robust z-score, replicate 2 = 3.36; robust z-score, replicate 3 = 1.34; inactive. For MTSS1 (MTSS I-BAR domain containing 1), the entry reads robust z-score, replicate 1 = -1.21; robust z-score, replicate 2 = -1.07; robust z-score, replicate 3 = 0.45; inactive.

Not a retest: an excerpt of the list.
GFRA4 (GDNF family receptor alpha 4) | robust z-score, replicate 1 = -1.12; robust z-score, replicate 2 = -0.485; robust z-score, replicate 3 = 0.744; call = inactive
P2RX1 (purinergic receptor P2X 1) | robust z-score, replicate 1 = 0.614; robust z-score, replicate 2 = 0.116; robust z-score, replicate 3 = -0.186; call = inactive
